Assay results as given in the supplement of paper PMC6411743.
± gives the standard deviation of the averaged measurements. The entries are a selection whose mix differs from that of the whole data set. Most entries show no effect beyond the scatter of the controls.

Protein sequences, listed by entry. Tags and fused reporters are not part of them. Lines headed by an entry give the natural chain unless they say otherwise; changes in a name come on top.
UniProt P35227: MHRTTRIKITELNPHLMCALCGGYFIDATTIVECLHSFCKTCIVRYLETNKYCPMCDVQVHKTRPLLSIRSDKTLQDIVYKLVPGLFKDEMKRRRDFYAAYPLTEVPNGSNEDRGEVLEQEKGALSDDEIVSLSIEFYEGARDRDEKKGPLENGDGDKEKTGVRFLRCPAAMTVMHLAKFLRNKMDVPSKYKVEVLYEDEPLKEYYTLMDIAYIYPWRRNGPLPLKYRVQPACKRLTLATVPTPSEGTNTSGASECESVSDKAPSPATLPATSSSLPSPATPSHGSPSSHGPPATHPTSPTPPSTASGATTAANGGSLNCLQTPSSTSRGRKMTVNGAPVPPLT
UniProt Q9Y3E1: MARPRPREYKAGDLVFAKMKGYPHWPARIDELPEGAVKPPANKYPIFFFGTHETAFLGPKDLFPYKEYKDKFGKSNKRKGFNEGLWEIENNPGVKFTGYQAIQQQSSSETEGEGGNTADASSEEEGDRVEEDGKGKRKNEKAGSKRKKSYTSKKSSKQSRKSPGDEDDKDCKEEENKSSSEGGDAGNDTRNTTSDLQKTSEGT
UniProt Q00341: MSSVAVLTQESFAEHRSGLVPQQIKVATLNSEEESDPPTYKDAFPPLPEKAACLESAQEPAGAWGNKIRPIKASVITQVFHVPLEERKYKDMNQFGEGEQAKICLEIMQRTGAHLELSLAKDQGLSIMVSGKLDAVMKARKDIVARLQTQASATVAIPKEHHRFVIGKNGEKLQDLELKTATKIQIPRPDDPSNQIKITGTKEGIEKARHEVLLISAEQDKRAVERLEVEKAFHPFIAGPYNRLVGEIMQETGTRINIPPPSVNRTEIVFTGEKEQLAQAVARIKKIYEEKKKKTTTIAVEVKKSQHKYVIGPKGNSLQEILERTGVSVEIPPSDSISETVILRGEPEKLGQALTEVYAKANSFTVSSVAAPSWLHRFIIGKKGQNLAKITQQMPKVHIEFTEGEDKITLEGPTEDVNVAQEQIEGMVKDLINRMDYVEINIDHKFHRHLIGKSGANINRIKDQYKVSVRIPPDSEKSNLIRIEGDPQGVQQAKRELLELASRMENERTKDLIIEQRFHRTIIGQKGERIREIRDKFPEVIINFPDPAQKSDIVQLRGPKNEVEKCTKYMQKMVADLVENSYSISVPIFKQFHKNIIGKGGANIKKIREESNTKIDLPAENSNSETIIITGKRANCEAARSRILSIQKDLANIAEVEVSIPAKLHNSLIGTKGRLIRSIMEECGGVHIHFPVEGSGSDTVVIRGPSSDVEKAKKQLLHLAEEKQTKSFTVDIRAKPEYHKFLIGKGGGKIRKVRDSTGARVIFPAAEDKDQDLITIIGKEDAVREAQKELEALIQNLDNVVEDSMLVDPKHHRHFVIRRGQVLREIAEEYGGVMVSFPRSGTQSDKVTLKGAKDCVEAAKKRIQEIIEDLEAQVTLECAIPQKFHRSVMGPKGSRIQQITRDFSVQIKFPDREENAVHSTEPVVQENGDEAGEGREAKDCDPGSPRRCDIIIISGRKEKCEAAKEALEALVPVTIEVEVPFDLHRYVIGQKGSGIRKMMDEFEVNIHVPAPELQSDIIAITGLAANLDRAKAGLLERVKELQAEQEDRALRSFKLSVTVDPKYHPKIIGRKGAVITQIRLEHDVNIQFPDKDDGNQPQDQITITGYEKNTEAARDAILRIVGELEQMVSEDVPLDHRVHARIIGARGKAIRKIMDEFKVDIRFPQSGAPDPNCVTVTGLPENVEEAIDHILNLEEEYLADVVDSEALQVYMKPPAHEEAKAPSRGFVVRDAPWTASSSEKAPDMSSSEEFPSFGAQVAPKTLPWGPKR
UniProt Q9BXJ8: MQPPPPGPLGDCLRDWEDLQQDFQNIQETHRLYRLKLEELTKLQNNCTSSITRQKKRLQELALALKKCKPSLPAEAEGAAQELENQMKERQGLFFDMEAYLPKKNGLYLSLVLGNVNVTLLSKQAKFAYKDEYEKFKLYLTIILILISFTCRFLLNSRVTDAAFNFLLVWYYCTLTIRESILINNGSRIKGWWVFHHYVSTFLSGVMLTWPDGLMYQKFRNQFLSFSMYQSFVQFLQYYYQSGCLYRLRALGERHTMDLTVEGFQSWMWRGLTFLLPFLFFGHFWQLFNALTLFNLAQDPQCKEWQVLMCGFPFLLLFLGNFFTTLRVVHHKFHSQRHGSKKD
UniProt Q9BSV6: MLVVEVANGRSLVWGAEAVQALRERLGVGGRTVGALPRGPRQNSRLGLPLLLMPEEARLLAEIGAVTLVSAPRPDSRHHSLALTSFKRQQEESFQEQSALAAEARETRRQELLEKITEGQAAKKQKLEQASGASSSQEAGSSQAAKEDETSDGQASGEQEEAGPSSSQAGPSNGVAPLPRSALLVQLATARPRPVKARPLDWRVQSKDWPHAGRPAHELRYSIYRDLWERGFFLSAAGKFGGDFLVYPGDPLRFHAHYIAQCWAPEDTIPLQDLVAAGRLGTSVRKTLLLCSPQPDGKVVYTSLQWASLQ
UniProt P0C1Z6, whole entry: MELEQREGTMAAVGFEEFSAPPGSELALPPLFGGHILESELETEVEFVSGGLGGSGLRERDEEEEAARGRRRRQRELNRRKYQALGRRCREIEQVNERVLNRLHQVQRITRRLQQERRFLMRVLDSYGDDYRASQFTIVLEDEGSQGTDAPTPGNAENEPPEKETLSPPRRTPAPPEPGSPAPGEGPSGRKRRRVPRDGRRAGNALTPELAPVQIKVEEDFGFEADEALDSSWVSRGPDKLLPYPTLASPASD
UniProt O75503: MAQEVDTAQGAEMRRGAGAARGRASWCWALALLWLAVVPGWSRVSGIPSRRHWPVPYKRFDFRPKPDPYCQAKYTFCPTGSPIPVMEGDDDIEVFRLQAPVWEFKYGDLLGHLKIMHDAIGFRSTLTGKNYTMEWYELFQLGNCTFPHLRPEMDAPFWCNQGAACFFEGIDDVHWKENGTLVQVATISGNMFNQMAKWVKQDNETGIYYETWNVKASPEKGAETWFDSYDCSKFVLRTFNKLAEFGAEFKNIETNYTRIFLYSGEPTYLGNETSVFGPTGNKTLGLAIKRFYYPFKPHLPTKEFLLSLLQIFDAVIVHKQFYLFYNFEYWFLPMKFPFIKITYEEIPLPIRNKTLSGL
UniProt P25787: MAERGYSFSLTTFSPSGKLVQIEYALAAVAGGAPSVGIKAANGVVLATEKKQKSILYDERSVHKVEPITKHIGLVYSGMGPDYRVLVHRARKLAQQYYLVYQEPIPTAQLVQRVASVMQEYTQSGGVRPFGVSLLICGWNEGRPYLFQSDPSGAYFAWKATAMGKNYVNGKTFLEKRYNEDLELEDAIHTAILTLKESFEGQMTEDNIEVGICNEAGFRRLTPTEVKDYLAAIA
UniProt Q14241: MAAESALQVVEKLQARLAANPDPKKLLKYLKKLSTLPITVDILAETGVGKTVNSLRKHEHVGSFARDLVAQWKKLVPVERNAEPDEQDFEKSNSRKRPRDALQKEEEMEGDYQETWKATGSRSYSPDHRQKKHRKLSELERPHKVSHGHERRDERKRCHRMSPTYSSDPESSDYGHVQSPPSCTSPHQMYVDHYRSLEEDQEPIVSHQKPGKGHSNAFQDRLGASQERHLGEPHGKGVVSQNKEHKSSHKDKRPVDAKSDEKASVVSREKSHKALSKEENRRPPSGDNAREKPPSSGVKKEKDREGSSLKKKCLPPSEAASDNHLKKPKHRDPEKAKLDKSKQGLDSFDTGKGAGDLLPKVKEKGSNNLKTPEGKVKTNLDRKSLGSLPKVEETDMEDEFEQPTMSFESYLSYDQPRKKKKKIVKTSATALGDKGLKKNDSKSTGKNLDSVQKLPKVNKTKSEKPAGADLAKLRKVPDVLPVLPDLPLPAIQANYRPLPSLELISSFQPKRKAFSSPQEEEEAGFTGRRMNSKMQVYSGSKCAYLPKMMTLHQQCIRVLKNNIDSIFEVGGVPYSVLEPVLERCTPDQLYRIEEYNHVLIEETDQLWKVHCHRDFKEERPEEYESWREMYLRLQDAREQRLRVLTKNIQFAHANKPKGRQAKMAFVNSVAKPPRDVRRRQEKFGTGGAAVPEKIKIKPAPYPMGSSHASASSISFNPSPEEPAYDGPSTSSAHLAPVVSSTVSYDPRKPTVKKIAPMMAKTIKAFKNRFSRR
UniProt Q16670: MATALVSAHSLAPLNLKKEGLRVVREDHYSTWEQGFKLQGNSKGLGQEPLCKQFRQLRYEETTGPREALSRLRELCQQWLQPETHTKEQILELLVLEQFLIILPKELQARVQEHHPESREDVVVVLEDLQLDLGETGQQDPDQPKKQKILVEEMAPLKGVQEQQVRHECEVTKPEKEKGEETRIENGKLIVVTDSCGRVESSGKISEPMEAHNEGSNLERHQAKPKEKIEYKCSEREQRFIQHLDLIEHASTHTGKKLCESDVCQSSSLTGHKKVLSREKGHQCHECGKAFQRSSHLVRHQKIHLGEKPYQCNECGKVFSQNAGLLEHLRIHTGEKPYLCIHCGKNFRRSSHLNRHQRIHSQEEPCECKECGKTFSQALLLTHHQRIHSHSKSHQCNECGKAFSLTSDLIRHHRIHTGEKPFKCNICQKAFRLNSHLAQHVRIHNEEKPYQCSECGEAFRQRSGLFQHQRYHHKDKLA
UniProt Q9UMR5: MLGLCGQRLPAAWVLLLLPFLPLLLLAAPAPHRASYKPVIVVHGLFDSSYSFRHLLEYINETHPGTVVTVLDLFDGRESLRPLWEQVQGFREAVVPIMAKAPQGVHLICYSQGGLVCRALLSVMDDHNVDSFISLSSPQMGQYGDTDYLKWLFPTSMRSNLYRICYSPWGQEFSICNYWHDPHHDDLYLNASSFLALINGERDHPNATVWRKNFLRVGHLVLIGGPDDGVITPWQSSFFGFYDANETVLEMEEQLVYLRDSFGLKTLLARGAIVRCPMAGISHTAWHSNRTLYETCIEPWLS
UniProt P46379: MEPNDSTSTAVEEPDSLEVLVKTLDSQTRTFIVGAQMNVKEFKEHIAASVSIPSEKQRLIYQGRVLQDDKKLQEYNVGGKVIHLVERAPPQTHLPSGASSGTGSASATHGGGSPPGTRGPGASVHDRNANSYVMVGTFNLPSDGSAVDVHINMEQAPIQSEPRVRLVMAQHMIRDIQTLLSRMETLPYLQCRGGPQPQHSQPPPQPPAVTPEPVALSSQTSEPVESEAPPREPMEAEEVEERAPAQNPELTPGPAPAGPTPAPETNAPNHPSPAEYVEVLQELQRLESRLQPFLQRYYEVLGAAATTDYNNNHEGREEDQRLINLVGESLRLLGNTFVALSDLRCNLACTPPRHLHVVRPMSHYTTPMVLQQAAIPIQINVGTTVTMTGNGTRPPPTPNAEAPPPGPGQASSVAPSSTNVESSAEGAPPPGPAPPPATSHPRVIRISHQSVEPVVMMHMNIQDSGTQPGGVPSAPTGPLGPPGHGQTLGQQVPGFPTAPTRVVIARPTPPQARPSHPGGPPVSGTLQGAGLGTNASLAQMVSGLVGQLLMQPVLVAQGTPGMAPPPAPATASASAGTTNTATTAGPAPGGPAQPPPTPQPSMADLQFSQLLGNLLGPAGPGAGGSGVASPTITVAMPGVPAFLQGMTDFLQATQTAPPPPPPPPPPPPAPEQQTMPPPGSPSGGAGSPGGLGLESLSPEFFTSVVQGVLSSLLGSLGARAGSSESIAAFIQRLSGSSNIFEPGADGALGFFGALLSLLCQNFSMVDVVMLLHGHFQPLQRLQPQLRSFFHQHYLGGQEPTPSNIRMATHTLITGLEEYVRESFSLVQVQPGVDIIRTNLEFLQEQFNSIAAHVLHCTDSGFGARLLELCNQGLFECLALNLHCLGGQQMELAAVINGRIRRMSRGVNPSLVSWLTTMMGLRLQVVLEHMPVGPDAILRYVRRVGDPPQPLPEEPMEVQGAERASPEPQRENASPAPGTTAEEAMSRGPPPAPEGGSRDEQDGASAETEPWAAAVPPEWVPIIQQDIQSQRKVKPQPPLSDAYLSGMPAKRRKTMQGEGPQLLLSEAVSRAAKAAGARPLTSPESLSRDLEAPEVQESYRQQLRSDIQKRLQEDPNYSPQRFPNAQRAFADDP

Key:
Assay in all cases: NP40-soluble protein abundance relative to vehicle (solubility fold change) (ratio); higher = more soluble protein in presence of ATP
A0A024R1V6|P35227 = A0A024R1V6|P35227 (UniProt P35227)
Method in brief: (§1)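 Jurkat crude lysate (Dounce-homogenised) was treated with eight concentrations from 0.1 to 10 mM for 10 min at room temperature, then 3 min at 37 °C. It was solubilised with 0.8% NP40 and benzonase (60 min, 4 °C) and ultracentrifuged, and the supernatant was TMT-labelled for LC-MS/MS. Intensities were vsn-normalised, and the value is the fold change against the NP40-processed vehicle per replicate, from three independent experiments.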

A0A024R216|Q9Y3E1 = A0A024R216|Q9Y3E1 (UniProt Q9Y3E1)
Method in brief: as §1

A0A024R4E5 = A0A024R4E5 (UniProt Q00341)
Method in brief: as §1

[1] = target: A0A024R4K9|A0A087WZA9|A0A087X266|Q9BXJ8 and related entries (UniProt Q9BXJ8)
Method in brief: as §1

A0A024R4M0|P46781 = A0A024R4M0|P46781 (UniProt P46781)
Method in brief: as §1

[2] = target: A0A024R4N9|A0A0G2JNK5|A9C4B9 and related entries (UniProt Q9BSV6)
Method in brief: as §1

[3] = target: A0A024R4Q5|G5E9B5 and related entries (UniProt P0C1Z6)
Method in brief: as §1

A0A024R644|O75503 = A0A024R644|O75503 (UniProt O75503)
Method in brief: as §1

A0A024RA52|P25787 = A0A024RA52|P25787 (UniProt P25787)
Method in brief: as §1

A0A024RAC6 = A0A024RAC6 (UniProt Q14241)
Method in brief: as §1

[4] = target: A0A024RCN4|A0A087X2F1|Q16670 and related entries (UniProt Q16670)
Method in brief: as §1

[5] = target: A0A024RCQ8|A0A0G2JH76|A0A140T8X7|Q9UMR5 and related entries (UniProt Q9UMR5)
Method in brief: as §1

[6] = target: A0A024RCR6|A0A0G2JK23|P46379 and related entries (UniProt P46379)
Method in brief: as §1

A0A067XG54 = target: T1, A0A067XG54 (UniProt Q8NB49)
T1 sequence (whole entry): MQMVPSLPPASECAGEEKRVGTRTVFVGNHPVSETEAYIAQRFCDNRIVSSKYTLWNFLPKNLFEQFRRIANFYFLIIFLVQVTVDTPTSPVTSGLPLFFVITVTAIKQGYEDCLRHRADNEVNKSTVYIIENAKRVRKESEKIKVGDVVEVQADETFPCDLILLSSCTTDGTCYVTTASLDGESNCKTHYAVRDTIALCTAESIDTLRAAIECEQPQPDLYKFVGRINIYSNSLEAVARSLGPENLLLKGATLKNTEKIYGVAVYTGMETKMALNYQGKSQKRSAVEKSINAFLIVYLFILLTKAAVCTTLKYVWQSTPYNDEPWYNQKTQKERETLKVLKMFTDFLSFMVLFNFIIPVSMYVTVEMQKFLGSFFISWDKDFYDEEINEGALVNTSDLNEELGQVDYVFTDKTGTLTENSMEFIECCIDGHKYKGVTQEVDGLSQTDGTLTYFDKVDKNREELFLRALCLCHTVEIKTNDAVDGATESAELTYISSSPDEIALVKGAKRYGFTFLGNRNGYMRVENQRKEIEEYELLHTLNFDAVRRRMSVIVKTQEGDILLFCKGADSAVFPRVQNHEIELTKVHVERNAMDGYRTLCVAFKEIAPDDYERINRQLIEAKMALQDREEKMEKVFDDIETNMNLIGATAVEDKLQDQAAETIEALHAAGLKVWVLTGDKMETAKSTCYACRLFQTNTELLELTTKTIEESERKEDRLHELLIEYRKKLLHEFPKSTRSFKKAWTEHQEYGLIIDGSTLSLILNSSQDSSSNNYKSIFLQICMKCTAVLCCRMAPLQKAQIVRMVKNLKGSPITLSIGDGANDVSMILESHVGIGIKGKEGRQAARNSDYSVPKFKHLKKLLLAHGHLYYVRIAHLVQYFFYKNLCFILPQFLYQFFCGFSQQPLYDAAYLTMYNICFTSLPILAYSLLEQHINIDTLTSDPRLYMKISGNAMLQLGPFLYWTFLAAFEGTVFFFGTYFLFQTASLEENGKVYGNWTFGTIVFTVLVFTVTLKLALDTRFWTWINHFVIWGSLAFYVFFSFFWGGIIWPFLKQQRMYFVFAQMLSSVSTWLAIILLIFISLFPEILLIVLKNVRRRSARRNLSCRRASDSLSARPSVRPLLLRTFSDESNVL
Method in brief: as §1

For Nc1ncnc2c1ncn2[C@@H]1O[C@H](COP(=O)(O)OP(=O)(O)OP(=O)(O)O)[C@@H](O)[C@H]1O [adenosine triphosphate], the NP40-soluble protein abundance (A0A024R1V6|P35227; concentration: 0.1mM) was 1.05 ± 0.044, the NP40-soluble protein abundance (A0A024R1V6|P35227; concentration: 0.5mM) was 1.07 ± 0.075 and the NP40-soluble protein abundance (A0A024R216|Q9Y3E1; concentration: 0.1mM) was 0.973 ± 0.014. For the same compound, the NP40-soluble protein abundance (A0A024R216|Q9Y3E1; concentration: 0.5mM) was 0.998 ± 0.039, the NP40-soluble protein abundance (A0A024R4E5; concentration: 0.1mM) was 1.01 ± 0.032 and the NP40-soluble protein abundance (A0A024R4E5; concentration: 0.5mM) was 0.949 ± 0.05. The NP40-soluble protein abundance ([1]; concentration: 0.1mM) was 1.07 ± 0.045, the NP40-soluble protein abundance ([1]; concentration: 0.5mM) was 1.03 ± 0.096 and the NP40-soluble protein abundance (A0A024R4M0|P46781; concentration: 0.1mM) was 0.914 ± 0.029. It also gave an NP40-soluble protein abundance (A0A024R4M0|P46781; concentration: 0.5mM) of 0.848 ± 0.13, an NP40-soluble protein abundance ([2]; concentration: 0.1mM) of 1.01 ± 0.059 and an NP40-soluble protein abundance ([2]; concentration: 0.5mM) of 1.09 ± 0.15. For the same compound, the NP40-soluble protein abundance ([3]; concentration: 0.1mM) was 1.11 ± 0.083, the NP40-soluble protein abundance ([3]; concentration: 0.5mM) was 1.05 ± 0.029 and the NP40-soluble protein abundance (A0A024R644|O75503; concentration: 0.1mM) was 0.953 ± 0.023. The NP40-soluble protein abundance (A0A024R644|O75503; concentration: 0.5mM) was 0.954 ± 0.036, the NP40-soluble protein abundance (A0A024RA52|P25787; concentration: 0.1mM) was 0.952 ± 0.055 and the NP40-soluble protein abundance (A0A024RA52|P25787; concentration: 0.5mM) was 0.95 ± 0.061. It also gave an NP40-soluble protein abundance (A0A024RAC6; concentration: 0.1mM) of 0.967 ± 0.044, an NP40-soluble protein abundance (A0A024RAC6; concentration: 0.5mM) of 0.963 ± 0.019 and an NP40-soluble protein abundance ([4]; concentration: 0.1mM) of 1.05 ± 0.013. It also gave an NP40-soluble protein abundance ([4]; concentration: 0.5mM) of 1.05 ± 0.055, an NP40-soluble protein abundance ([5]; concentration: 0.1mM) of 0.936 ± 0.01 and an NP40-soluble protein abundance ([5]; concentration: 0.5mM) of 0.951 ± 0.041. For the same compound, the NP40-soluble protein abundance ([6]; concentration: 0.1mM) was 0.98 ± 0.047, the NP40-soluble protein abundance ([6]; concentration: 0.5mM) was 0.955 ± 0.064 and the NP40-soluble protein abundance (A0A067XG54; concentration: 0.1mM) was 1.05 ± 0.076. The NP40-soluble protein abundance (A0A067XG54; concentration: 0.5mM) was 1.06 ± 0.056.
